Values of other authors, collected in patent publication US20110009496A1, “RESVERATROL FORMULATIONS” (SIRTRIS PHARMACEUTICAS, INC., priority 2008, published 2011).
At least one structure is not confirmed: it was looked up by name or label, or the drawing left a doubt.

Test system: HDAC
Conditions: in vitro or in vivo; cited from earlier work

Question: Which “inhibition of HDAC (concentration level in words)” value does the source give for CCC(=O)CCCCC[C@@H]1NC(=O)[C@H]2CCCCN2C(=O)[C@H]([C@@H](C)CC)NC(=O)[C@H](Cc2cn(OC)c3ccccc23)NC1=O [Apicidin, apicidin] here?
Answer: Its value is “nanomolar concentrations”.
